Experimental data: the supplement of paper PMC9744312
Counter-ions that a name gives are not always drawn. The list shows a part of the results. The data scatter; read single values as rough.

The compounds below were run on Peyronie's disease tunica albuginea primary fibroblasts (assay: cell viability (DRAQ5 nuclear stain) relative to TGF-beta1-only control; higher = more viable cells). Conditions: 10 µM; TGF-beta1 10 ng/mL; 72 h.

Compound	cell viability
OCCN1CCN(CCCN2c3ccccc3Sc3ccc(C(F)(F)F)cc32)CC1 [Fluphenazine dihydrochloride]	80%
CC(C)(Oc1ccc(CCNC(=O)c2ccc(Cl)cc2)cc1)C(=O)O [Bezafibrate]	97.5%
c1ccc(CC2=NCCN2)cc1 [Tolazoline HCl]	95%
Clc1ccc2c(c1)C(N1CCNCC1)=Nc1ccccc1O2 [Amoxapine]	93.6%
O=C1c2ccccc2C(=O)C1c1ccccc1 [Phenindione]	81.1%
O=C(Cn1ccnc1[N+](=O)[O-])NCc1ccccc1 [Benznidazole]	99.1%
O=C(c1cc(Cc2n[nH]c(=O)c3ccccc23)ccc1F)N1CCN(C(=O)C2CC2)CC1	79.6%
CC[C@H]1OC(=O)[C@H](C)[C@@H](O[C@H]2C[C@@](C)(OC)[C@@H](O)[C@H](C)O2)[C@H](C)[C@@H](O[C@@H]2O[C@H](C)C[C@H](N(C)C)[C@H]2O)[C@](C)(O)C[C@@H](C)C(=O)[C@H](C)[C@@H](O)[C@]1(C)O [Erythromycin thiocyanate]	82.7%
CC[C@H]1OC(=O)[C@H](C)[C@@H](O[C@H]2C[C@@](C)(OC)[C@@H](O)[C@H](C)O2)[C@H](C)[C@@H](O[C@@H]2O[C@H](C)C[C@H](N(C)C)[C@H]2O)[C@](C)(O)C[C@@H](C)C(=O)[C@H](C)[C@@H](O)[C@]1(C)O [Erythromycin]	59.3%
CC(C(=O)O)c1ccc(CC2CCCC2=O)cc1 (stereo not drawn) [Loxoprofen]	86.5%
CC(C(=O)O)c1ccc(CC2CCCC2=O)cc1 (stereo not drawn) [Loxoprofen Sodium]	99.5%
COc1cccc(-c2c(C)n(Cc3c(F)cccc3C(F)(F)F)c(=O)n(C[C@H](NCCCC(=O)O)c3ccccc3)c2=O)c1F [Elagolix Sodium]	85.9%
CC1=C(/C=C/C(C)=C/C=C/C(C)=C/C=C/C=C(C)/C=C/C=C(C)/C=C/C2=C(C)CCCC2(C)C)C(C)(C)CCC1 [Beta Carotene]	91.2%
CO[C@H]1/C=C/O[C@@]2(C)Oc3c(C)c(O)c4c(O)c(c(/C=N/N5CCN(C)CC5)c(O)c4c3C2=O)NC(=O)/C(C)=C\C=C\[C@H](C)[C@H](O)[C@@H](C)[C@@H](O)[C@@H](C)[C@H](OC(C)=O)[C@@H]1C [Rifampin]	83.1%
CCCSc1ccc2[nH]c(NC(=O)OC)nc2c1 [Albendazole]	59.6%
Cc1c(Cl)cccc1Nc1ccccc1C(=O)O [Tolfenamic Acid]	89.1%
CC(C)Nc1cc(-c2c[nH]c(C(=O)N[C@H](CO)c3cccc(Cl)c3)c2)c(Cl)cn1	63.4%
Cc1ccc(N(CC2=NCCN2)c2cccc(O)c2)cc1 [Phentolamine Mesylate]	95.3%
CNC[C@@H](O)c1ccc(O)c(O)c1 [L-Adrenaline]	107%
CCc1ccc(CCOc2ccc(CC3SC(=O)NC3=O)cc2)nc1 (stereo not drawn) [Pioglitazone HCl]	95.8%
CCc1ccc(CCOc2ccc(CC3SC(=O)NC3=O)cc2)nc1 (stereo not drawn) [Pioglitazone]	105%
Cc1c(C(C)C)c(=O)n(-c2ccccc2)n1C [Propyphenazone (4-Isopropylantipyrine)]	98.8%
C[C@H](N[C@@H](CCc1ccccc1)C(=O)O)C(=O)N1CCC[C@H]1C(=O)O [Enalaprilat Dihydrate]	96.7%
NC(=O)N1CCC(CC(=O)N2CCC([C@H]3c4ncc(Br)cc4CCc4cc(Cl)cc(Br)c43)CC2)CC1 [Lonafarnib]	90.7%
CN(C)[C@@H]1C(O)=C(C(N)=O)C(=O)[C@@]2(O)C(O)=C3C(=O)c4c(O)cccc4[C@@](C)(O)[C@H]3C[C@@H]12 [Tetracycline HCl]	75.7%

Compound	cell viability
COCCCC/C(=N\OCCN)c1ccc(C(F)(F)F)cc1 [Fluvoxamine maleate]	85.7%
COC(=O)[C@H](c1ccccc1Cl)N1CCc2sccc2C1 [Clopidogrel]	90.3%
CNC[C@H](O)[C@@H](O)[C@H](O)[C@H](O)CO.CNC[C@H](O)[C@@H](O)[C@H](O)[C@H](O)CO.O=C([O-])CN(CCN(CC(=O)[O-])CC(=O)O)CCN(CC(=O)[O-])CC(=O)O.[Gd+3] [Gadopentetate Dimeglumine]	87.3%
Nc1nc(F)nc2c1ncn2[C@@H]1O[C@H](COP(=O)(O)O)[C@@H](O)[C@@H]1O [Fludarabine Phosphate]	89.6%
Oc1c(Br)cc(Br)c2cccnc12 [Broxyquinoline]	103%
CS(=O)(=O)c1ccc(C(=O)Nc2ccc(Cl)c(-c3ccccn3)c2)c(Cl)c1 [Vismodegib (GDC-0449)]	104%
CC(C)C[C@H](NC(=O)[C@H](Cc1ccccc1)NC(=O)c1cnccn1)B(O)O [Bortezomib (PS-341)]	31.4%
CN1CCN(C2=Nc3ccccc3Oc3ccc(Cl)cc32)CC1 [Loxapine Succinate]	83.4%
NCc1ccccc1CC(=O)N[C@@H]1C(=O)N2C(C(=O)O)=C(CSc3nnnn3CC(=O)O)CS[C@H]12 [Ceforanide]	98%
N=C(NCCCCCCNC(=N)NC(=N)Nc1ccc(Cl)cc1)NC(=N)Nc1ccc(Cl)cc1 [Chlorhexidine]	69.1%
CCOC(=O)[C@@H](N)Cc1ccc(-c2cc(O[C@H](c3ccc(Cl)cc3-n3ccc(C)n3)C(F)(F)F)nc(N)n2)cc1 [Telotristat Etiprate (LX 1606 Hippurate)]	92.4%
C[N+]1(C)CCC(OC(=O)C(O)(c2ccccc2)C2CCCC2)C1 (stereo not drawn) [Glycopyrrolate]	87.6%
N[C@@H](CCC(=O)O)C(=O)[O-].[Na+] [L-Glutamic acid monosodium salt]	92.6%
N#Cc1ccc(C(c2ccc(C#N)cc2)n2cncn2)cc1 [Letrozole]	102%
Clc1ccc(CCC(Cn2ccnc2)Sc2c(Cl)cccc2Cl)cc1 (stereo not drawn) [Butoconazole nitrate]	87.8%
Clc1ccc(CCC(Cn2ccnc2)Sc2c(Cl)cccc2Cl)cc1 (stereo not drawn) [Butoconazole]	79.9%
C[C@@H]1C[C@H]2[C@@H]3C[C@H](F)C4=CC(=O)C=C[C@]4(C)[C@@]3(F)[C@@H](O)C[C@]2(C)[C@@]1(O)C(=O)CO [Flumethasone]	82.6%
O=C(NC[C@H]1CN(c2ccc(N3CCOCC3=O)cc2)C(=O)O1)c1ccc(Cl)s1 [Rivaroxaban]	97.9%
O=C(O)c1cn(-c2ccc(F)cc2)c2cc(N3CCNCC3)c(F)cc2c1=O [Sarafloxacin HCl]	90.2%
Cc1nnc(C(=O)NC(C)(C)c2nc(C(=O)NCc3ccc(F)cc3)c(O)c(=O)n2C)o1 [Raltegravir (MK-0518)]	104%
Cc1nnc(C(=O)NC(C)(C)c2nc(C(=O)NCc3ccc(F)cc3)c(O)c(=O)n2C)o1 [Raltegravir potassium]	97%
O=C1c2c(O)cccc2Cc2cccc(O)c21 [Dithranol]	84.5%
Nc1c(CC(=O)O)cccc1C(=O)c1ccccc1 [Amfenac Sodium Monohydrate]	106%
CC(=O)Oc1ccccc1C(=O)Nc1ncc([N+](=O)[O-])s1 [Nitazoxanide]	60.4%
CCCCC(O)c1ccccc1 (stereo not drawn) [Fenipentol]	80.5%

Compound	cell viability
CCCCOCCOCCOCc1cc2c(cc1CCC)OCO2 [Piperonyl butoxide]	87.8%
CCN(CC)CCOC(=O)C1(C2CCCCC2)CCCCC1 [Dicyclomine HCl]	88.6%
NS(=O)(=O)c1cc(C2(O)NC(=O)c3ccccc32)ccc1Cl (stereo not drawn) [Chlorthalidone]	88.6%
CCN[C@H]1CN(CCCOC)S(=O)(=O)c2sc(S(N)(=O)=O)cc21 [Brinzolamide]	95%
CC(C)c1c(C(=O)Nc2ccccc2)c(-c2ccccc2)c(-c2ccc(F)cc2)n1CC[C@@H](O)C[C@@H](O)CC(=O)O [Atorvastatin Calcium]	59%
Cc1ncc(C[n+]2csc(CCO)c2C)c(N)n1 [Thiamine HCl (Vitamin B1)]	83.5%
CC(=O)OCC(=O)[C@@]1(O)CC[C@H]2[C@@H]3CCC4=CC(=O)CC[C@]4(C)[C@H]3[C@@H](O)C[C@@]21C [Hydrocortisone acetate]	80.4%
FC(F)(F)C(Cl)Br (stereo not drawn) [Halothane]	88.5%
Cc1ccc(C(=O)c2ccc(CC(=O)O)n2C)cc1 [Tolmetin Sodium]	98%
Cc1ccc(C(=O)c2ccc(CC(=O)O)n2C)cc1 [Tolmetin]	90.5%
O=C(O)CCCCCCCC(=O)O [Azelaic acid]	81.3%
CC(=O)OCC(=O)[C@@]1(O)CC[C@H]2[C@@H]3CCC4=CC(=O)CC[C@]4(C)[C@@]3(F)[C@@H](O)C[C@@]21C [Fludrocortisone acetate]	86%
OCCN1CCN(CC/C=C2/c3ccccc3Sc3ccc(C(F)(F)F)cc32)CC1 [Flupenthixol dihydrochloride]	79.3%
C[C@@H](O)[C@H]1C(=O)N2C(C(=O)O)=C([C@H]3CCCO3)S[C@H]12 [Faropenem Sodium]	94.3%
Cc1cn[nH]c1 [Fomepizole]	94.8%
OC(Cn1cncn1)(Cn1cncn1)c1ccc(F)cc1F [Fluconazole]	87.3%
NCCc1c[nH]cn1 [Histamine Phosphate]	93.9%
NCCc1c[nH]cn1 [Histamine 2HCl]	98.3%
NCCc1c[nH]cn1 [Histamine]	91.9%
N=C1CCCN1Cc1[nH]c(=O)[nH]c(=O)c1Cl [Tipiracil hydrochloride]	95.9%
Nc1[nH]cnc2ncnc1-2 [Adenine sulfate]	104%
Nc1[nH]cnc2ncnc1-2 [Adenine HCl]	91.3%
C[C@@H](NCCCc1cccc(C(F)(F)F)c1)c1cccc2ccccc12 [Cinacalcet HCl]	80%

15 neighbouring entries out of the list so far, quoted:
Compound	cell viability
CO[C@H]1/C=C/O[C@@]2(C)Oc3c(C)c(O)c4c(O)c(c(/C=N/N5CCN(C)CC5)c(O)c4c3C2=O)NC(=O)/C(C)=C\C=C\[C@H](C)[C@H](O)[C@@H](C)[C@@H](O)[C@@H](C)[C@H](OC(C)=O)[C@@H]1C [Rifampin]	83.1%
CCCSc1ccc2[nH]c(NC(=O)OC)nc2c1 [Albendazole]	59.6%
Cc1c(Cl)cccc1Nc1ccccc1C(=O)O [Tolfenamic Acid]	89.1%
CC(C)Nc1cc(-c2c[nH]c(C(=O)N[C@H](CO)c3cccc(Cl)c3)c2)c(Cl)cn1	63.4%
Cc1ccc(N(CC2=NCCN2)c2cccc(O)c2)cc1 [Phentolamine Mesylate]	95.3%
CNC[C@@H](O)c1ccc(O)c(O)c1 [L-Adrenaline]	107%
CCc1ccc(CCOc2ccc(CC3SC(=O)NC3=O)cc2)nc1 (stereo not drawn) [Pioglitazone HCl]	95.8%
CCc1ccc(CCOc2ccc(CC3SC(=O)NC3=O)cc2)nc1 (stereo not drawn) [Pioglitazone]	105%
Cc1c(C(C)C)c(=O)n(-c2ccccc2)n1C [Propyphenazone (4-Isopropylantipyrine)]	98.8%
C[C@H](N[C@@H](CCc1ccccc1)C(=O)O)C(=O)N1CCC[C@H]1C(=O)O [Enalaprilat Dihydrate]	96.7%
NC(=O)N1CCC(CC(=O)N2CCC([C@H]3c4ncc(Br)cc4CCc4cc(Cl)cc(Br)c43)CC2)CC1 [Lonafarnib]	90.7%
CN(C)[C@@H]1C(O)=C(C(N)=O)C(=O)[C@@]2(O)C(O)=C3C(=O)c4c(O)cccc4[C@@](C)(O)[C@H]3C[C@@H]12 [Tetracycline HCl]	75.7%
COCCCC/C(=N\OCCN)c1ccc(C(F)(F)F)cc1 [Fluvoxamine maleate]	85.7%
COC(=O)[C@H](c1ccccc1Cl)N1CCc2sccc2C1 [Clopidogrel]	90.3%
CNC[C@H](O)[C@@H](O)[C@H](O)[C@H](O)CO.CNC[C@H](O)[C@@H](O)[C@H](O)[C@H](O)CO.O=C([O-])CN(CCN(CC(=O)[O-])CC(=O)O)CCN(CC(=O)[O-])CC(=O)O.[Gd+3] [Gadopentetate Dimeglumine]	87.3%
